PubChem BioAssay AID1159601, NIAID, 2016
Aim: 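Which toll-like receptor pathway genes are needed for TNF promoter activation by Pam3CSK4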 (primary screen). Cell system: human THP-1 reporter cells differentiated with PMA into macrophage-like cells. Reagents: single siRNA against human genes. Time to read-out: ligand added 4 hours before read-out; cells assayed 48 to 72 hours after siRNA transfection. Treatment: Pam3CSK4 (TLR2 ligand) for 4 hours; dose not given. Measured: 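TNF promoter dual-luciferase ratio measured 4 h after Pam3CSK4, converted to robust z-scores against negative controls and averaged across replicates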. Scale: TNF reporter z-score: higher = stronger TNF promoter reporter activity. Rule for the call: 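The depositor grades each siRNA by the size of its mean z-score in either direction, with steps at 1, 1.5, 2 and 2.5; active calls sit near -1.5 or below, or near 1.5 or above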. Meaning of the calls: active = clear change (up or down); inactive = little change.
This is one part, drawn at random, of 756 reagents. 143 of them (19%) count as active. 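Calls include both lowered and raised reporter signal; each row is a single siRNA, not a gene summary; Pam3CSK4 dose not stated.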 Entries without a mark were called inactive. Reagents against one gene are numbered here. Not given: the amount of reagent.

For RELB #1, the values are TNF reporter z-score, replicate mean -0.425.
Against RELB #2, the entry reads TNF reporter z-score, replicate mean -0.368.
After knock-down of RELB #3 the results were TNF reporter z-score, replicate mean 1.11.
Depletion of RELB #4 came out at: TNF reporter z-score, replicate mean -0.268.
Against RELB #5 the deposit lists TNF reporter z-score, replicate mean -0.37.
Knock-down of RELB #6 resulted in: TNF reporter z-score, replicate mean -0.188.
Silencing of IRF9 #1 resulted in: TNF reporter z-score, replicate mean -1.3.
Depletion of IRF9 #2 came out at: TNF reporter z-score, replicate mean -0.701.
IRF9 #3 gave TNF reporter z-score, replicate mean -0.818.
IRF9 #4 showed TNF reporter z-score, replicate mean -2.56 (active).
After knock-down of IRF9 #5 the results were TNF reporter z-score, replicate mean -1.02.
After knock-down of IRF9 #6, the record shows TNF reporter z-score, replicate mean -1.3.
With knock-down of EGR2 #1, the record shows TNF reporter z-score, replicate mean -1.44.
With knock-down of EGR2 #2, the record shows TNF reporter z-score, replicate mean -1.25.
Silencing of EGR2 #3 resulted in: TNF reporter z-score, replicate mean -1.69 (active).
Silencing of EGR2 #4 gave: TNF reporter z-score, replicate mean -1.41.
Knock-down of EGR2 #5 gave: TNF reporter z-score, replicate mean -0.823.
For EGR2 #6 the deposit lists TNF reporter z-score, replicate mean -3.51 (active).
After knock-down of REL #1, the screen gave TNF reporter z-score, replicate mean -0.835.
Silencing of REL #2 came out at: TNF reporter z-score, replicate mean -1.09.
Silencing of REL #3 resulted in: TNF reporter z-score, replicate mean 0.0462.
REL #4 scored TNF reporter z-score, replicate mean -1.54 (active).
Silencing of REL #5 came out at: TNF reporter z-score, replicate mean -0.463.
With knock-down of REL #6, the screen gave TNF reporter z-score, replicate mean 0.172.

2 entries already listed, sorted by “TNF reporter z-score, replicate mean”, high to low:
REL #3 → TNF reporter z-score, replicate mean: 0.0462
REL #4 → TNF reporter z-score, replicate mean: -1.54 (active)

Additional results follow.
CD180 #1 gave TNF reporter z-score, replicate mean -0.51.
With knock-down of CD180 #2, the screen gave TNF reporter z-score, replicate mean -0.456.
With knock-down of CD180 #3, the screen gave TNF reporter z-score, replicate mean -1.2.
Against CD180 #4 the deposit lists TNF reporter z-score, replicate mean -0.565.
With knock-down of CD180 #5, the screen gave TNF reporter z-score, replicate mean -1.3.
Against CD180 #6 the deposit lists TNF reporter z-score, replicate mean -0.186.
Depletion of MAP2K6 #1 gave: TNF reporter z-score, replicate mean -0.321.
With knock-down of MAP2K6 #2, the record shows TNF reporter z-score, replicate mean 0.191.
Depletion of MAP2K6 #3 came out at: TNF reporter z-score, replicate mean -0.137.
Silencing of MAP2K6 #4 gave: TNF reporter z-score, replicate mean 0.622.
MAP2K6 #5 scored TNF reporter z-score, replicate mean 0.237.
Silencing of MAP2K6 #6 gave: TNF reporter z-score, replicate mean 0.897.
TRADD #1 scored TNF reporter z-score, replicate mean 1.53 (active).
Against TRADD #2, the values are TNF reporter z-score, replicate mean -0.698.
Silencing of TRADD #3 resulted in: TNF reporter z-score, replicate mean -0.714.
For TRADD #4 the deposit lists TNF reporter z-score, replicate mean -1.15.
Knock-down of TRADD #5 gave: TNF reporter z-score, replicate mean 0.993.
After knock-down of TRADD #6, the record shows TNF reporter z-score, replicate mean -5.01 (active).
For UBE2V1 #1 the deposit lists TNF reporter z-score, replicate mean 0.803.
With knock-down of UBE2V1 #2, the screen gave TNF reporter z-score, replicate mean -0.17.
Depletion of UBE2V1 #3 gave: TNF reporter z-score, replicate mean 0.476.
UBE2V1 #4 gave TNF reporter z-score, replicate mean -1.03.
For UBE2V1 #5, the values are TNF reporter z-score, replicate mean -0.309.
After knock-down of UBE2V1 #6 the results were TNF reporter z-score, replicate mean 0.591.
